SMILES strings stand for the structures. This is one part of the list. Repeats are few or missing, and single values can be far off.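 Cells were imaged in 1,536-well plates, and nuclei stained with an antibody against cleaved PARP were counted against all DNA-stained nuclei to give the apoptosis fraction. Screening doses were chosen to leave most cells alive, and resting and induced cleaved-PARP levels differ strongly between cell lines.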

Among the test systems are 501Mel; A101D; A2058; A375; C32; CBRC013; CBRC014; CBRC016; CBRC017; CBRC034; COLO792; COLO800; COLO829; G361; IPC-298; IST-MEL1; LB2518-MEL; LOXIMVI.
Holding throughout (assay): cleaved PARP positive nuclei fraction relative to DMSO control; melanoma cells; higher = more apoptosis
Common to all, as to conditions: library dose: low library concentration; 72 h

Turning to `COc1ccc2c(c1)CCC1C2CCC2(C)C(NCCCCCCN3C(=O)C=CC3=O)CCC12` (centres undefined) + O=C1NC(=O)/C(=C/c2ccc(-c3ccc(F)cc3O)o2)S1 [AS252424] (first compound 0.4 µM, partner dose 1 µM), the “cleaved PARP positive nuclei fraction” value in the assay with 501Mel was 41.7%; in the assay on A101D, 178%; in the assay with A2058, 90.4%; in the assay on A375 it was 252%; in the assay with C32, 52.7%; in the assay with CBRC013, 196%. The “cleaved PARP positive nuclei fraction” value with CBRC014 is 135%; with CBRC016, 137%; in the assay on CBRC017 (line from a melanoma biopsy), 104%; with CBRC034 it was 198%; with COLO792, 173%; with COLO800, 137%. In addition, the “cleaved PARP positive nuclei fraction” value in the assay with COLO829 is 107%; in the assay with G361 it was 116%; in the assay on IPC-298, 86.6%; in the assay with IST-MEL1 it was 47.1%; in the assay with LB2518-MEL, 72.1%; with LOXIMVI, 39.9%.
Regarding `CN(NC(=O)CC(=O)NN(C)C(=S)c1ccccc1)C(=S)c1ccccc1` + O=C1NC(=O)/C(=C/c2ccc(-c3ccc(F)cc3O)o2)S1 [AS252424] (first compound 0.006 µM, partner dose 1 µM), the “cleaved PARP positive nuclei fraction” value in the assay with 501Mel is 190%; in the assay on A101D, 140%; in the assay on A2058 it was 120%; with A375 it was 1180%; in the assay on C32, 228%; in the assay with CBRC013, 163%. In addition, the “cleaved PARP positive nuclei fraction” value with CBRC014 was 581%; with CBRC016, 127%; in the assay on CBRC017, 104%; in the assay with CBRC034 it was 328%; in the assay with COLO792, 104%; with COLO800, 126%. Further, the “cleaved PARP positive nuclei fraction” value with COLO829 worked out at 148%; with G361 it was 45.1%; with IPC-298, 42.2%; in the assay with IST-MEL1, 190%; with LB2518-MEL it was 303%; with LOXIMVI it was 1680%.
Consider `O=C(O)c1ccc(-c2c[nH]c3ncc(-c4ccccc4)cc23)cc1C1CCCC1` + Cn1cc(/C=C2\C(=O)Nc3cccnc32)c2ccccc21 [GW441756] (first compound 0.16 µM, partner dose 0.4 µM), for which the “cleaved PARP positive nuclei fraction” value is 70.3% in the assay with 501Mel; 107% with A101D; 418% in the assay on A2058; 102% in the assay with A375; 46.6% in the assay with C32; 211% in the assay on CBRC013 (line from a melanoma biopsy). In addition, the “cleaved PARP positive nuclei fraction” value in the assay with CBRC014 stood at 105%; in the assay with CBRC016, 97.2%; in the assay on CBRC017 it was 112%; in the assay with CBRC034 it was 65.5%; with COLO792 it was 166%; in the assay on COLO800, 147%. Further, the “cleaved PARP positive nuclei fraction” value amounted to 60.7% in the assay on COLO829; 132% with G361; 88% with IPC-298; 141% in the assay with IST-MEL1; 75.5% in the assay with LB2518-MEL; 215% with LOXIMVI.
`CN(NC(=O)CC(=O)NN(C)C(=S)c1ccccc1)C(=S)c1ccccc1` + O=C(O)C(=O)Nc1sc2c(c1C(=O)O)CCNC2 [TCS401] (first compound 0.006 µM, partner dose 1.66667 µM): the “cleaved PARP positive nuclei fraction” value in the assay on 501Mel was determined as 134%; in the assay on A101D, 88.5%; in the assay with A2058, 312%; in the assay with A375 it was 722%; in the assay with C32 it was 118%; in the assay with CBRC013 it was 175%. In addition, the “cleaved PARP positive nuclei fraction” value with CBRC014 worked out at 394%; in the assay with CBRC016, 55.7%; with CBRC017, 146%; in the assay on CBRC034 (line from a melanoma biopsy), 141%; in the assay on COLO792 it was 86.8%; in the assay with COLO800 it was 314%. The “cleaved PARP positive nuclei fraction” value in the assay with COLO829 was 156%; in the assay on G361, 124%; with IPC-298 it was 127%; in the assay on IST-MEL1, 51%; with LB2518-MEL it was 85.4%; in the assay on LOXIMVI, 54.9%.
Consider `N#Cc1c(O)c2c(-c3ccc(-c4ccccc4O)cc3)csc2[nH]c1=O` + O=c1cc(-c2cccc3c2Sc2ccccc2S3)oc(N2CCOCC2)c1 [KU55933] (first compound 2 µM, partner dose 1 µM), for which the “cleaved PARP positive nuclei fraction” value in the assay on 501Mel was determined as 83.3%; in the assay on A101D, 140%; with A2058, 147%; with A375 it was 91.4%; in the assay with C32, 43.6%; in the assay with CBRC013 it was 74.4%. Also, the “cleaved PARP positive nuclei fraction” value in the assay with CBRC014 was determined as 87.2%; with CBRC016, 40.2%; in the assay on CBRC017, 129%; in the assay with CBRC034 it was 64.9%; in the assay on COLO792 it was 77%; with COLO800, 159%. For the same compound, the “cleaved PARP positive nuclei fraction” value in the assay with COLO829 turned out to be 95.4%; in the assay on G361, 80.2%; in the assay on IPC-298, 35.9%; in the assay on IST-MEL1 it was 88%; with LB2518-MEL it was 78.2%; in the assay with LOXIMVI, 51.7%.
For the compound `N#Cc1c(O)c2c(-c3ccc(-c4ccccc4O)cc3)csc2[nH]c1=O` + COc1ccc2c(c1)CCC1C2CCC2(C)C(NCCCCCCN3C(=O)C=CC3=O)CCC12 [U73122] (first compound 2 µM, partner dose 0.4 µM), the “cleaved PARP positive nuclei fraction” value with 501Mel turned out to be 87%; in the assay with A101D, 106%; with A2058 it was 127%; in the assay with A375 it was 108%; in the assay on C32, 201%; in the assay with CBRC013, 279%. Also, the “cleaved PARP positive nuclei fraction” value is 98.9% with CBRC014; 105% in the assay on CBRC016 (line from a melanoma biopsy); 100% in the assay on CBRC017; 120% in the assay with CBRC034; 108% in the assay with COLO792; 126% with COLO800. The “cleaved PARP positive nuclei fraction” value in the assay with COLO829 is 99.5%; with G361, 58.3%; in the assay with IPC-298 it was 79.5%; in the assay on IST-MEL1, 28.2%; in the assay on LB2518-MEL, 138%; in the assay on LOXIMVI, 48.4%.
Take `Oc1nc(-c2ccc(C(F)(F)F)cc2)nc2c1CSCC2` + CC(C)CCN1c2nc(Nc3cc(F)c(O)c(F)c3)ncc2N(C)C(=O)C1C [BID1870] (first compound 2 µM, partner dose 0.2 µM): the “cleaved PARP positive nuclei fraction” value in the assay on 501Mel is 92.2%; with A101D, 177%; in the assay with A2058 it was 156%; in the assay with A375, 27.1%; in the assay with C32 it was 136%; in the assay with CBRC013, 132%. The “cleaved PARP positive nuclei fraction” value with CBRC014 amounted to 91.4%; in the assay with CBRC016, 43.3%; in the assay with CBRC017, 77.9%; in the assay with CBRC034, 51.5%; in the assay on COLO792 it was 98.1%; in the assay with COLO800, 155%. Moreover, the “cleaved PARP positive nuclei fraction” value was 73.5% with COLO829; 87.1% in the assay on G361; 47.7% with IPC-298; 174% in the assay on IST-MEL1; 349% in the assay with LB2518-MEL; 35.9% in the assay with LOXIMVI.
For the compound `O=C(O)C(=O)Nc1sc2c(c1C(=O)O)CCNC2` + CCCCCCCCCCCC1=C(O)C(=O)C=C(O)C1=O [Embelin] (first compound 1.66667 µM, partner dose 1.2 µM), the “cleaved PARP positive nuclei fraction” value in the assay on 501Mel amounted to 83.2%; with A101D, 134%; with A2058, 190%; in the assay on A375, 139%; in the assay on C32, 85.8%; with CBRC013, 45.2%. The “cleaved PARP positive nuclei fraction” value in the assay on CBRC014 (line from a melanoma biopsy) was found to be 69.2%; with CBRC016, 77.6%; in the assay with CBRC017 it was 55.8%; with CBRC034, 83.5%; in the assay with COLO792, 99.6%; in the assay on COLO800, 90.2%. The “cleaved PARP positive nuclei fraction” value in the assay with COLO829 worked out at 95.1%; in the assay with G361 it was 58.6%; in the assay with IPC-298, 106%; in the assay on IST-MEL1, 52.4%; in the assay with LB2518-MEL, 159%; in the assay on LOXIMVI it was 36.3%.

Values taken from the supplement of paper PMC4604168 (melanoma cell lines).
